Values from PubChem BioAssay AID686937 (Drosophila RNAi Screening Center, 2013).
The deposit covers about 23,000 reagents; below is an unselected part of those that have a named target and a result. 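Reduced-secretion tags in replicate 1 do not always agree with the z-scores; no criterion for assigning the tags was given.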 Names joined by + are all predicted targets of the reagent. Further read-outs or replicates are left out here. Not stated in the record: the amount of reagent.

Aim: 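Genes in the fly needed for secretion of protein constitutively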 (primary screen)
Cell system: Drosophila S2 cells expressing secreted horseradish peroxidase
Reagents: long dsRNA against Drosophila genes
Time to read-out: about 5.5 days (5 days dsRNA, then 12 h reporter induction)
Treatment: reporter expression induced after 5 days of dsRNA, read 12 h later; inducer not stated
Read-out: 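After 5 days of dsRNA and 12 h of reporter induction, medium peroxidase read by chemiluminescence and scored as per-plate z-score; higher values mean more reporter released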
Scale: z-score: higher = more reporter secreted into medium

CG12054 (GeneID 43694) [DRSC14467] showed z-score, replicate 1 = -2.32; phenotype, replicate 1 = reduced secretion. CG12398 (GeneID 32422) [DRSC19454] gave z-score, replicate 1 = -0.29. With knock-down of CG11755 (GeneID 41031) [DRSC14374] the results were z-score, replicate 1 = 0.32. ato (GeneID 40975) [DRSC16904] gave z-score, replicate 1 = -0.09. Depletion of Cog4 (GeneID 34442) [DRSC03057] came out at: z-score, replicate 1 = -1.47. Depletion of CG1233 (GeneID 38063) [DRSC08269] resulted in: z-score, replicate 1 = 0.15.

Depletion of Fa2h (GeneID 35670) [DRSC06608] came out at: z-score, replicate 1 = 0.09. After knock-down of Fa2h (GeneID 35670) [DRSC06609], the record shows z-score, replicate 1 = 0.11. After knock-down of CG13029 (GeneID 39886) [DRSC09909] the results were z-score, replicate 1 = 0.27. For CG33306 (GeneID 2768915) [DRSC01899] the deposit lists z-score, replicate 1 = 0.21. Knock-down of nan (GeneID 39571) [DRSC10551] came out at: z-score, replicate 1 = 0.21. CG15760 (GeneID 32324) [DRSC19725] gave z-score, replicate 1 = -0.06.

CG5024 (GeneID 43117) [DRSC15698] gave z-score, replicate 1 = 0.2. ND-13A (GeneID 33744) [DRSC03110] scored z-score, replicate 1 = 0.06. After knock-down of EAChm (GeneID 39637) [DRSC10010], the screen gave z-score, replicate 1 = -0.01. CG3649 (GeneID 37626) [DRSC04400] scored z-score, replicate 1 = 0.3. Against CG14137 (GeneID 39300) [DRSC10142], the values are z-score, replicate 1 = 0.47. Knock-down of Tim17b1 (GeneID 40635) [DRSC12179] resulted in: z-score, replicate 1 = 0.38.

CG13996 (GeneID 33842) [DRSC02328] scored z-score, replicate 1 = 0.24. Against Tsr1 (GeneID 40360) [DRSC11821], the entry reads z-score, replicate 1 = 0.17. Against KLHL18 (GeneID 41458) [DRSC15496] the deposit lists z-score, replicate 1 = 0.15. Depletion of CG33493 (GeneID 2768994) [DRSC10642] gave: z-score, replicate 1 = 0.17. Depletion of Vinc (GeneID 31201) [DRSC18728] resulted in: z-score, replicate 1 = 0.49.

Ordered by “z-score, replicate 1” (high to low): some entries from above
CG3649 (GeneID 37626) [DRSC04400] | z-score, replicate 1: 0.3
ND-13A (GeneID 33744) [DRSC03110] | z-score, replicate 1: 0.06
EAChm (GeneID 39637) [DRSC10010] | z-score, replicate 1: -0.01

Next entries:
Depletion of CG11437 (GeneID 40470) [DRSC11659] gave: z-score, replicate 1 = -0.05. After knock-down of CG6294 + CG6299 + CG15642 [DRSC19981], the screen gave z-score, replicate 1 = 0.36. Depletion of mrt (GeneID 43291) [DRSC15484] came out at: z-score, replicate 1 = 0.32. With knock-down of HisRS (GeneID 32841) [DRSC19986] the results were z-score, replicate 1 = -1.66; phenotype, replicate 1 = reduced secretion. Knock-down of Pdxk (GeneID 39066) [DRSC10419] gave: z-score, replicate 1 = 0.35. Cyp313a2 (GeneID 41487) [DRSC16625] gave z-score, replicate 1 = 0.41.

For CG31204 (GeneID 318625) [DRSC15106], the values are z-score, replicate 1 = 0.4. Ilp2 (GeneID 39150) [DRSC10968] gave z-score, replicate 1 = 0.04. Against lbm (GeneID 35623) [DRSC07643] the deposit lists z-score, replicate 1 = 0.28. CAHbeta (GeneID 41070) [DRSC14449] gave z-score, replicate 1 = 0.55. Depletion of smp-30 (GeneID 41786) [DRSC17059] came out at: z-score, replicate 1 = 0.6. Against Plp (GeneID 3772382) [DRSC10006], the values are z-score, replicate 1 = 0.67.

Plp (GeneID 3772382) [DRSC10333] showed z-score, replicate 1 = -0.03. After knock-down of Plp (GeneID 3772382) [DRSC10700] the results were z-score, replicate 1 = 0.26. Against CARPB (GeneID 31915) [DRSC18437], the entry reads z-score, replicate 1 = 0.23. For CARPB (GeneID 31915) [DRSC18438], the entry reads z-score, replicate 1 = 0.35. CG32679 (GeneID 318150) [DRSC17644] gave z-score, replicate 1 = 0.58.
